The other results are listed elsewhere or left out. These are further read-outs of the screen, such as a control signal, another cell line or another target. No call is given for them. Compounds called inactive in the main read-out are mostly missing here. Words in brackets tell the shape of the fitted curve; partial curves, single points and poor fits give uncertain potencies.
Test: qHTS Assay for Modulators of Lamin A Splicing
Conditions: HeLa LMNA splicing GFP/RFP minigene ratio, 48 h
Procedure, shortened: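 S3 HeLa stable clones carrying a lamin A-EGFP splicing minigene plus DsRed2 were seeded at 600 cells/well in Opti-MEM with 2% FBS, pin-dosed and incubated 48 h at 37°C. Acumen cytometry (488 nm) gave the GFP/RFP total-intensity ratio.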

[1] = measured here: GFP splicing reporter channel
[2] = measured here: RFP viability control channel

For Fc1ccc(Nc2ccnc(-c3ccoc3)n2)cc1, the AC50 [1] was 20 µM [falling, partial curve, poor fit] and the AC50 [2] was 35.5 µM [falling, single point].

For CCCCCCOC(=O)c1cccnc1, the AC50 [2] was 0.0447 µM [rising, full curve, poor fit].

With Cc1nn(Cc2ccccc2Cl)c(C)c1C(=O)Nc1nnc(C2CC2)s1 the AC50 [1] was 2.24 µM [falling, full curve].

For COC(=O)CCC(C)C1CCC2C3CC[C@H]4CC(O)CC[C@@]4(C)C3CC(O)[C@]12C (stereo partly specified), the AC50 [1] was 35.5 µM [falling, single point] and the AC50 [2] was 35.5 µM [falling, single point].

In the case of COc1ccc(C(c2nnnn2CC2CCCO2)N2CCN(c3cccc(C)c3C)CC2)cc1 (stereo unspecified), the AC50 [1] is reported as 12.6 µM [rising, partial curve] and the AC50 [2] is reported as 17.8 µM [rising, partial curve].

With CC(=O)c1ccccc1OCCn1nnc(-c2ccc(C)cc2)n1 the AC50 [2] was 35.5 µM [rising, single point].

In the case of Cc1cc(Cl)ccc1OCC(=O)N1CC(C)CC(C)C1 (stereo unspecified), the AC50 [2] is reported as 15.8 µM [rising, single point].

With O=C(Nc1ccc(S(=O)(=O)N2CCc3ccccc32)cc1)c1ccco1 the AC50 [2] was 12.6 µM [rising, partial curve].

In the case of CC(=O)/C(C#N)=C1\NC(=O)C(Cc2ccccc2)S1 (stereo unspecified), the AC50 [2] is reported as 7.08 µM [rising, full curve].

In the case of COc1ccccc1C(=O)Nc1ccc(C(=O)OCc2cc(=O)n3nc(C4CC4)sc3n2)cc1, the AC50 [1] is reported as 0.0126 µM [rising, full curve, poor fit].

In the case of CC1=NN(C(N)=S)C(=O)C1N=Nc1cccc2ccccc12 (stereo unspecified), the AC50 [1] is reported as 7.94 µM [rising, partial curve, poor fit] and the AC50 [2] is reported as 3.55 µM [falling, single point].

In the case of Cc1nc([N+](=O)[O-])c(Sc2nc3ccccc3[nH]2)n1Cc1ccccc1, the AC50 [1] is reported as 11.2 µM [falling, partial curve, poor fit] and the AC50 [2] is reported as 35.5 µM [falling, single point].

With CC(C)CC(NC(N)=O)C(=O)Nc1ccc2c(c1)OCO2 (stereo unspecified) the AC50 [1] was 3.98 µM [falling, full curve] and the AC50 [2] was 1.26 µM [falling, full curve, poor fit].

In the case of CCCn1c(N)c(N(CCOC)C(=O)/C=C/c2cccc(Cl)c2)c(=O)[nH]c1=O, the AC50 [1] is reported as 0.794 µM [falling, full curve, poor fit].

For COC(=O)c1ccc(CSc2nnc(NC(=O)C3CC(=O)N(Cc4ccc(C)cc4)C3)s2)cc1 (stereo unspecified), the AC50 [1] was 15.8 µM [rising, single point] and the AC50 [2] was 35.5 µM [rising, single point].

For Cc1nn2c(C)c(C(=O)NC(C)(C)C)cnc2c1-c1ccc(F)cc1, the AC50 [1] was 0.141 µM [falling, full curve] and the AC50 [2] was 0.0501 µM [falling, full curve, poor fit].

For CCOC(=O)c1c(-c2ccc(C)cc2)csc1NC(=O)CCN1CC(C)OC(C)C1 (stereo unspecified), the AC50 [2] was 31.6 µM [rising, single point].

With Cc1cc(C)c2nc(Cl)c(CN(Cc3ccco3)C(=O)Nc3ccccc3C)cc2c1 the AC50 [1] was 12.6 µM [falling, partial curve] and the AC50 [2] was 7.94 µM [falling, single point].

With O=C(COC(=O)c1ccco1)NCc1ccc(Cl)cc1 the AC50 [2] was 6.31 µM [rising, single point].

For O=C(/C=C/c1ccco1)NC(=S)NNC(=O)c1ccco1, the AC50 [2] was 35.5 µM [rising, single point].

For O=C(N1CCCC1)C12CC3CC(C1)CC(C(=O)N1CCCC1)(C3)C2, the AC50 [1] was 2.82 µM [falling, full curve] and the AC50 [2] was 1.78 µM [falling, partial curve].

In the case of Cn1nc(-c2ccccc2F)c2cc(C(=O)Nc3ccc4c(c3)OCCO4)sc21, the AC50 [2] is reported as 25.1 µM [rising, partial curve].

In the case of CCCCNC(=O)c1cc2n(n1)CCCN(Cc1ccc(C)cc1)C2=O, the AC50 [1] is reported as 35.5 µM [falling, single point] and the AC50 [2] is reported as 35.5 µM [falling, single point].

With CC(C)(C)NC(=O)COC(=O)c1ccccc1Nc1ccc(SC(F)F)cc1 the AC50 [2] was 4.47 µM [rising, full curve].

With Cc1c(C(=O)OCC(=O)N2CC(C)OC(C)C2)oc2ccc(Br)cc12 (stereo unspecified) the AC50 [2] was 14.1 µM [rising, single point].

In the case of COc1cc(CNC2CCCCC2OC)cc(OC)c1 (stereo unspecified), the AC50 [1] is reported as 0.0447 µM [falling, full curve, poor fit] and the AC50 [2] is reported as 0.00501 µM [falling, full curve, poor fit].

For Cc1sc2ncnc(N/N=C/c3ccccc3O)c2c1C, the AC50 [2] was 7.94 µM [rising, partial curve].

For CC(OC(=O)Cn1c(C(F)(F)F)nc2ccccc21)C(N)=O (stereo unspecified), the AC50 [1] was 0.00501 µM [falling, full curve, poor fit] and the AC50 [2] was 0.00501 µM [falling, full curve, poor fit].

In the case of CC(C)Cn1c(N)c(C(=O)NCc2cccs2)c2nc3ccccc3nc21, the AC50 [1] is reported as 35.5 µM [falling, single point] and the AC50 [2] is reported as 25.1 µM [falling, partial curve].

In the case of O=S(=O)(c1cc(Cl)ccc1Cl)N1CCN(Cc2ccc3c(c2)OCO3)CC1, the AC50 [2] is reported as 35.5 µM [rising, single point].

For COc1cc(C)c(/C=C/C(C)=C/C=C/C(C)=C/C(=O)O)c(C)c1C, the AC50 [1] was 11.2 µM [falling, partial curve, poor fit] and the AC50 [2] was 0.158 µM [rising, partial curve, poor fit].

With CCCCCCCCCCCCCCCCCC(=O)OCC(O)CO (stereo unspecified) the AC50 [1] was 0.00562 µM [falling, full curve, poor fit].

With O=C(C1CC1)N1CCC(c2nc(-c3ccc(S(=O)(=O)NCC4CCCO4)cc3)no2)CC1 (stereo unspecified) the AC50 [2] was 6.31 µM [rising, full curve].

With CCOc1ccc(CCNC(=O)Cn2ccc3ccccc3c2=O)cc1OCC the AC50 [1] was 0.0794 µM [falling, full curve, poor fit].

For CCNc1ncc2nc(-c3cn(C)c4ccccc34)c(=O)n(-c3ccccc3)c2n1, the AC50 [1] was 10 µM [falling, partial curve] and the AC50 [2] was 15.8 µM [falling, partial curve].

Reference: PubChem BioAssay AID1487 (National Center for Advancing Translational Sciences (NCATS), 2009)
